Data reported in US20250114430A1, “MODIFIED PEPTIDOMIMETICS AND METHODS OF USE” (The University of North Carolina at Chapel Hill, priority 2021, published 2025).
For some of these results: At least one peptide structure holds a part that was inferred or is arguable (an end, a ring closure or a residue). For some of these results: At least one structure is not confirmed: it was looked up by name or label, or the drawing left a doubt. No end group written: not given here.

The chains behind the UniProt entries cited, without tags or fusion partners.
UniProt Q96D31, whole entry: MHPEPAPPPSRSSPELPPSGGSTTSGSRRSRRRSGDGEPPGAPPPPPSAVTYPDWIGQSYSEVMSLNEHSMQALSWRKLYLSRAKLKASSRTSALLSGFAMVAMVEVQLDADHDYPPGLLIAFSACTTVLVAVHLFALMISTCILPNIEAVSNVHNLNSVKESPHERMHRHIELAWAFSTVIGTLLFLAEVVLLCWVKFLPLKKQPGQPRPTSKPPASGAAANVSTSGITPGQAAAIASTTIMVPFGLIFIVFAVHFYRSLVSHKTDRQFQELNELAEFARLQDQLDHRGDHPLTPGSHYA

Assays:
[1] = system: P. aeruginosa; assay: P. aeruginosa infection in WT mice, ELD607 versus comparators; assay type: in vivo; conditions: WT mice infected with P. aeruginosa
Excerpt: We then infected WT mice with P. aeruginosa and treated with ELD607, the Orai1 small molecule antagonist […], dexamethasone or scrambled ELD607.

[2] = system: HEK293T cells; assay: Cytoplasmic Ca^2+ (Fluo-4) in HEK293T cells incubated with ELD peptides; assay type: cell-based; conditions: 2 hours with Fluo-4 plus or minus peptide
[3] = system: HEK293T cells; assay: Inhibition of Ca^2+ influx in HEK293T cells after pre-incubation of peptide in CF sputum; assay type: cell-based; conditions: peptide incubated 6 h in CF sputum, then HEK293T cells, thapsigargin
[4] = target: T1, Orai1/store operated Ca^2+ influx (Homo sapiens, UniProt Q96D31); assay: Store operated Ca^2+ influx in HEK293T cells (Example 2); assay type: cell-based; conditions: a6 and ELD607 combined
T1 construct: Endogenous Orai1/store operated Ca^2+ influx have been extensively studied in HEK293T cells; endogenous in cells; host or cells: HEK293T
Excerpt: Endogenous Orai1/store operated Ca^2+ influx have been extensively studied in HEK293T cells, so this cell type was used to understand ELD607-Orai1 interactions. […] Thapsigargin is a SERCA pump inhibitor that prevents uptake of cytosolic Ca^2+ into the endoplasmic reticulum. Thapsigargin is commonly used to stimulate Orai1/store operated Ca^2+ influx. […] Dynamic light scattering (DLS) was used to evaluate binding of ELD607 to peptides of Orai1 extracellular loops. […] Thus, it was concluded that ELD607 interacts with Orai1.

[5] = system: P. aeruginosa, Staphylococcus aureus, and Haemophilus influenzae; assay: Murine bacterial infection models (three organisms); assay type: in vivo, mice
Description: Mice were dosed intranasally with P. aeruginosa (PA), S. aureus (Sa), or H. influenzae followed by vehicle (saline) or 0.5 mg/kg of ELD100 or ELD607 per mouse. FIG. 19 panels A, F, and K show total cell counts; FIG. 19 panels B, G, and L show BAL macrophages; FIG. 19 panels C, H, and M show BAL neutrophils; FIG. 19 panels D, I, and N show whole lung CFUs; and FIG. 19 panels E, J, and O show spleen CFUs. Top row, P. aeruginosa, middle row, S. aureus, bottom row, H. influenzae. * p<0.05 different from naïve mice; #p<0.05 different from infected mice.
ELD607 reduces neutrophilia and increases lung bacterial clearance in multiple murine bacterial infection models. Neutrophilia is a common feature of both Gram-positive and Gram-negative lung infections. Accordingly, further studies were performed with P. aeruginosa, Staphylococcus aureus, and Haemophilus influenzae (FIG. 19 panels B, C, G, H, L, and M). After infection with all three organisms, significant levels of bacteria were detected in the lung and spleen, and the infections increased total BAL cell numbers due to neutrophilia, while relative BAL macrophage numbers declined (FIG. 19 panels A-O). […] Moreover, 24 h after infection, about 10^9 CFUs could be detected in murine whole lung homogenate.

[6] = 0.5 mg/kg intranasal, 24 h after infection

Compound: C[C@@H]1C[C@H]2[C@@H]3CCC4=CC(=O)C=C[C@]4(C)[C@@]3(F)[C@@H](O)C[C@]2(C)[C@@]1(O)C(=O)CO [dexamethasone, reference compound]
- neutrophilia, weight loss, bacterial infections and lung macrophage levels (these parameters) [1]: neither −58453, dexamethasone nor scrambled ELD607 had any significant effects

Compound: DITLVHDIVNMLIHGL [ELD100, DITLVHDIVNMLIHGL]
- cytoplasmic calcium levels as compared to a control scrambled peptide [2]: reduced cytoplasmic calcium levels
- inhibition of Ca^2+ influx after pre-exposure to CF sputum [3]: failed to inhibit Ca^2+ influx after incubation in CF sputum
- additivity of inhibitory effects of a6 and ELD607 on thapsigargin-induced elevations in cytosolic Ca^2+ [4]: not additive
- lung macrophage levels [5, 6]: not
- neutrophilia [5, 6]: not
- overall outcomes ([5]; all three infections): essentially no effect
